Data as given in publication doi:10.1101/2024.01.26.577166.
No constants are given. Whether binding was seen depends on the method and setting. For part of these data: Binding seen in cells or lysates may run through a third protein. Some binding calls cover weakened binding; strength is not graded here. Where a sequence is shown, tags or fusion partners need not be part of it.

Sequences of proteins named here, by UniProt entry; tags and fusion partners are left off.
UniProt Q9LUM4: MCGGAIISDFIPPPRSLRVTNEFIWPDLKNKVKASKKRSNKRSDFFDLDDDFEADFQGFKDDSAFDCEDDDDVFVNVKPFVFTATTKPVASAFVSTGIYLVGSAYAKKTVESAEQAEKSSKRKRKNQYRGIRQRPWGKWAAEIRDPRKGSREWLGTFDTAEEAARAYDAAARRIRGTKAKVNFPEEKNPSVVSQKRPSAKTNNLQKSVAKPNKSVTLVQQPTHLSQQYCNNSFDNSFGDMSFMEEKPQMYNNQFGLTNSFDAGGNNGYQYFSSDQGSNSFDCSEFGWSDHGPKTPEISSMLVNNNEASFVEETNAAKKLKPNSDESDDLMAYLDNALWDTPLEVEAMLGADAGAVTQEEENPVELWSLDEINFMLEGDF
UniProt Q9SSA8: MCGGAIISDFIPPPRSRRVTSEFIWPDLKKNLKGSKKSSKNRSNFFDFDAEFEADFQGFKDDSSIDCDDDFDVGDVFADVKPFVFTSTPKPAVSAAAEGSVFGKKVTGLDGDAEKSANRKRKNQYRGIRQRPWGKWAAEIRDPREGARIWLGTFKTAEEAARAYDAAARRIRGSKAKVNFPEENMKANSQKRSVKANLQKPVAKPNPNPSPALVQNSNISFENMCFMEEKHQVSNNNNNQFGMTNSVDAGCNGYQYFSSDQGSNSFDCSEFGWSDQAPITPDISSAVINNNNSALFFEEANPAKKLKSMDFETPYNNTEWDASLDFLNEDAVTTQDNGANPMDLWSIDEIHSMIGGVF
UniProt Q8H0T5: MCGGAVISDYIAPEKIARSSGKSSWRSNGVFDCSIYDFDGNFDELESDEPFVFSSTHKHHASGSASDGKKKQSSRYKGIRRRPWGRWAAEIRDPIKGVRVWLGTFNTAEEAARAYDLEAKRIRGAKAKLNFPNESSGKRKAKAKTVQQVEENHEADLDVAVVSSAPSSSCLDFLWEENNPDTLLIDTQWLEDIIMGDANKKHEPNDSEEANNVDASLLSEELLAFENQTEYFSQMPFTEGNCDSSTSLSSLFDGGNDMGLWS
UniProt O22259: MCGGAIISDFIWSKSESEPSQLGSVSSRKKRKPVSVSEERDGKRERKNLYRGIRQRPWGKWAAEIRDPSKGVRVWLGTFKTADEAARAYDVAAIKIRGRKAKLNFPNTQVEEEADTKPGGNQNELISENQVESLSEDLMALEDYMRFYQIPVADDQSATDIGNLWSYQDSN
UniProt P42736: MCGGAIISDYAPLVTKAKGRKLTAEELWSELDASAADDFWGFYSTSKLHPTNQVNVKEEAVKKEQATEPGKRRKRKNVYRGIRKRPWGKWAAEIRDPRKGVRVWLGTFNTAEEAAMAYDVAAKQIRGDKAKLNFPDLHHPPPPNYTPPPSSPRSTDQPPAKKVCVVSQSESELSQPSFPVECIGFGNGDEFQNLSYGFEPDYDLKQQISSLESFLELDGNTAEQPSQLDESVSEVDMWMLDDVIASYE

Each substance was assayed against T1, AtMED21 fused with the GAL4 DNA-binding domain (pDEST32 bait) (Arabidopsis thaliana) (UniProt C0LU16) (assay: two-hybrid).
T1 sequence: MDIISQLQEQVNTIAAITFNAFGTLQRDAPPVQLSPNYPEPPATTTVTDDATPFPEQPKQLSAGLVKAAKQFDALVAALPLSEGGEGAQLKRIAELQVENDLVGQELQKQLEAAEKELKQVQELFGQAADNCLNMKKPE

Row | Substance | binding
1 | RAP2.2 fused with the GAL4 activation domain (full-length, pDEST22 prey) (from UniProt Q9LUM4 1-379) | no binding
2 | RAP2.12 fused with the GAL4 activation domain (full-length, pDEST22 prey) (from UniProt Q9SSA8 1-358) | no binding

These substances were tested against T2, AtMED25 fused with the GAL4 DNA binding domain (full-length, pDEST32 bait) (Arabidopsis thaliana) (UniProt Q7XYY2) (assay: two-hybrid).
T2 sequence: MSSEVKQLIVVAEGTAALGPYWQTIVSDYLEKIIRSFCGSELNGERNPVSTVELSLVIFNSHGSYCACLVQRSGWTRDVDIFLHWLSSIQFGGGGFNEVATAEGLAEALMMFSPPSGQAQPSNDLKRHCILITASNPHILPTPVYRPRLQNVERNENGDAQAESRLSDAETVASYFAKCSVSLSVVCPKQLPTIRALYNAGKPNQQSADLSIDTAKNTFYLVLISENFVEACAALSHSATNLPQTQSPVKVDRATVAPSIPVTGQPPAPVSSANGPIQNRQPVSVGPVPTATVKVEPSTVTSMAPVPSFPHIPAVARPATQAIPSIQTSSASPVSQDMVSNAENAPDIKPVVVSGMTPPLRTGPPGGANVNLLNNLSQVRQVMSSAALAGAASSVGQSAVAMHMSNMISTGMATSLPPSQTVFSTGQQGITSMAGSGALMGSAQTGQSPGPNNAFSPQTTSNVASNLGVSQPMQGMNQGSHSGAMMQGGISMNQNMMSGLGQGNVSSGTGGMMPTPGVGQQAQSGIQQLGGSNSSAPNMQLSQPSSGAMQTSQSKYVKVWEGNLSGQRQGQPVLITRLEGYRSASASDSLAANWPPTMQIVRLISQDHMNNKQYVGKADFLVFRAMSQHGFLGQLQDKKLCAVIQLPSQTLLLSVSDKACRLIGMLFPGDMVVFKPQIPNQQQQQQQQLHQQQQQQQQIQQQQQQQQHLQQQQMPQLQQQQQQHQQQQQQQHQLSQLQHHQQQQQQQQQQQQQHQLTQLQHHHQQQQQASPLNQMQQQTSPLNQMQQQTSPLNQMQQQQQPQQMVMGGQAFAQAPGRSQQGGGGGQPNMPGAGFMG

Row | Substance | binding
3 | HRE1 fused with the GAL4 activation domain (pDEST22 prey) (from UniProt Q8H0T5 1-262) | no binding
4 | HRE2 fused with the GAL4 activation domain (pDEST22 prey) (from UniProt O22259 1-171) | no binding
5 | RAP2.2 fused with the GAL4 activation domain (full-length, pDEST22 prey) (from UniProt Q9LUM4 1-379) | binds
6 | RAP2.3 fused with the GAL4 activation domain (pDEST22 prey) (from UniProt P42736 1-248) | no binding
7 | RAP2.12 fused with the GAL4 activation domain (full-length, pDEST22 prey) (from UniProt Q9SSA8 1-358) | binds

Each substance was assayed against T3, AtMED25-nYFP (Arabidopsis protoplasts) (Arabidopsis thaliana) (UniProt Q7XYY2) (assay: split reporter).
T3 sequence: T2 sequence

Row | Substance | binding
8 | RAP2.2-cYFP (from UniProt Q9LUM4 1-379) | binds
9 | RAP2.12-cYFP (from UniProt Q9SSA8 1-358) | binds
